Values quoted from earlier work, collected in patent US6372783B1, “Enantiomeric compounds for treatment of cardiac arrhythmias and methods of use” (Aryx Therapeutics, priority 1999, dated 2002).

Details: share of the time that pulmonary toxicity is fatal; cited from earlier work

For CCCCc1oc2ccccc2c1C(=O)c1cc(I)c(OCCN(CC)CC)c(I)c1 [Amiodarone], the “pulmonary toxicity, fatal” value is listed as 10%.
